Paper PMC6639074

Molecular target: GST-Rab11A, GTP-locked (QL) (human)
Test: pull-down; GST-Rab on glutathione Sepharose beads with GppNHp or GDP (100 uM), lysate of HEK293T cells (HeLa in the legend of Figure 7E), untransfected or expressing FLAG-HPS3; 1% Triton X-100, high salt elution, immunoblot; only the target purified

binding: binds
B1: RELCH/KIAA1468 (protein, UniProt Q9P260 1-1216)
chain: MAAMAPGGSGSGGGVNPFLSDSDEDDDEVAATEERRAVLRLGAGSGLDPGSAGSLSPQDPVALGSSARPGLPGEASAAAVALGGTGETPARLSIDAIAAQLLRDQYLLTALELHTELLESGRELPRLRDYFSNPGNFERQSGTPPGMGAPGVPGAAGVGGAGGREPSTASGGGQLNRAGSISTLDSLDFARYSDDGNRETDEKVAVLEFELRKAKETIQALRANLTKAAEHEVPLQERKNYKSSPEIQEPIKPLEKRALNFLVNEFLLKNNYKLTSITFSDENDDQDFELWDDVGLNIPKPPDLLQLYRDFGNHQVTGKDLVDVASGVEEDELEALTPIISNLPPTLETPQPAENSMLVQKLEDKISLLNSEKWSLMEQIRRLKSEMDFLKNEHFAIPAVCDSVQPPLDQLPHKDSEDSGQHPDVNSSDKGKNTDIHLSISDEADSTIPKENSPNSFPRREREGMPPSSLSSKKTVHFDKPNRKLSPAFHQALLSFCRMSADSRLGYEVSRIADSEKSVMLMLGRCLPHIVPNVLLAKREELIPLILCTACLHPEPKERDQLLHILFNLIKRPDDEQRQMILTGCVAFARHVGPTRVEAELLPQCWEQINHKYPERRLLVAESCGALAPYLPKEIRSSLVLSMLQQMLMEDKADLVREAVIKSLGIIMGYIDDPDKYHQGFELLLSALGDPSERVVSATHQVFLPAYAAWTTELGNLQSHLILTLLNKIEKLLREGEHGLDEHKLHMYLSALQSLIPSLFALVLQNAPFSSKAKLHGEVPQIEVTRFPRPMSPLQDVSTIIGSREQLAVLLQLYDYQLEQEGTTGWESLLWVVNQLLPQLIEIVGKINVTSTACVHEFSRFFWRLCRTFGKIFTNTKVKPQFQEILRLSEENIDSSAGNGVLTKATVPIYATGVLTCYIQEEDRKLLVGFLEDVMTLLSLSHAPLDSLKASFVELGANPAYHELLLTVLWYGVVHTSALVRCTAARMFELTLRGMSEALVDKRVAPALVTLSSDPEFSVRIATIPAFGTIMETVIQRELLERVKMQLASFLEDPQYQDQHSLHTEIIKTFGRVGPNAEPRFRDEFVIPHLHKLALVNNLQIVDSKRLDIATHLFEAYSALSCCFISEDLMVNHFLPGLRCLRTDMEHLSPEHEVILSSMIKECEQKVENKTVQEPQGSMSIAASLVSEDTKTKFLNKMGQLTTSGAMLANVFQRKK

These are yes or no findings as the source states them, for the method shown. In cells and extracts the contact can be indirect. Binding calls can cover weak binding; strength is not graded here.
